The list shows only some results of the screen, not a fair sample: it gathers tests that were run many times, whatever their T/C, doses with no T/C, and many T/C values between a quarter and a half above the control. Further doses and runs are listed elsewhere. T/C gives the treated animals as a percentage of the vehicle group. Some doses have a count of surviving animals in place of a T/C: the source files T/C as zero there, which appears to mark a toxic dose or a test without result, not a measured value. Some doses without a T/C left all or most animals alive at the check, yet need not have been tolerated: survival well below the control is almost never listed, so the zero probably covers shortened survival too. Counts of survivors are from the toxicity check (mostly the fifth day) where no day follows; animals may have died later. Schedule codes are those of the source, taken here to give the interval after Q, in days (D) or hours (H), and the number of doses after X. Some doses were run more than once; their values stand side by side, smallest first. Where survival is the endpoint, this PubChem deposit counts one and a half times the control or more as active, and values a quarter to a half above the control carry no call in these data; other NCI protocols may use other cut-offs.
Test system: BDF1 mice, P388 leukemia ip, median survival T/C
Experiment: NCI In Vivo Anticancer Drug Screen. Data for tumor model P388 Leukemia (intraperitoneal) in B6D2F1 (BDF1) mice
Settings: T/C endpoint: median survival time, higher T/C = longer survival
In short: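 Survival ratio, drug arm over vehicle arm, in mice with a transplanted tumour.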

[1] = dose: 25.0 mg/kg/injection, schedule: Q01DX009 (ip), vehicle: saline with Tween-80
[2] = dose: 50.0 mg/kg/injection, schedule: Q01DX009 (ip), vehicle: saline with Tween-80

O=[N+]([O-])c1ccc(O)c(C2N(Cc3ccc(N(CCCl)CCCl)cc3)CCCN2Cc2ccc(N(CCCl)CCCl)cc2)c1
T/C (dose: 50.0 mg/kg/injection, schedule: Q01DX010 (ip), vehicle: carboxymethylcellulose (CMC)): 125 % of control

CC(=O)N(C(C)=O)c1cc([N+](=O)[O-])ccc1C
survivor count (dose: 400.0 mg/kg/injection, schedule: Q04DX003 (ip), vehicle: saline with Tween-80): 5 of 6

O=C(c1ccccc1)C12CC3CC(CC(C3)C1)C2
T/C (dose: 12.5 mg/kg/injection, schedule: Q01DX009 (ip), vehicle: saline with Tween-80): 126 % of control
survivor count [1]: 6 of 6
survivor count [2]: 6 of 6
survivor count (dose: 100.0 mg/kg/injection, schedule: Q01DX009 (ip), vehicle: saline with Tween-80): 6 of 6

Nc1ccc(OC(=O)Oc2ccc(N)cc2)cc1
survivor count (dose: 600.0 mg/kg/injection, schedule: Q01DX009 (ip), vehicle: saline with Tween-80): 0 of 6

CCOC(=O)COc1ccc(C=O)cc1
survivor count (dose: 200.0 mg/kg/injection, schedule: Q04DX003 (ip), vehicle: Klucel (hydroxypropylcellulose) (HPC)): 6 of 6

CCCCOB(/C=C/Sc1ccccc1)OCCCC
T/C (dose: 133.0 mg/kg/injection, schedule: Q01DX009 (ip), vehicle: saline with Tween-80): 127 % of control
T/C (dose: 200.0 mg/kg/injection, schedule: Q01DX009 (ip), vehicle: saline with Tween-80): 127, 133, 135 % of control
T/C (dose: 300.0 mg/kg/injection, schedule: Q01DX009 (ip), vehicle: saline with Tween-80): 125 % of control
survivor count (dose: 400.0 mg/kg/injection, schedule: Q01DX009 (ip), vehicle: saline with Tween-80): 1 of 6

Cc1cc(N(CCCl)CCCl)c(C)cc1NC(=O)c1ccccc1
survivor count [1]: 5 of 6
survivor count [2]: 5 of 6

O=C1C=C/C(=N/S(=O)(=O)c2ccccc2)c2ccccc21
survivor count (dose: 1.5 mg/kg/injection, schedule: Q01DX009 (ip), vehicle: DMSO): 6 of 6
survivor count (dose: 3.0 mg/kg/injection, schedule: Q01DX009 (ip), vehicle: DMSO): 6 of 6
survivor count (dose: 6.0 mg/kg/injection, schedule: Q01DX009 (ip), vehicle: DMSO): 5 of 6 and 5 of 5
survivor count (dose: 25.0 mg/kg/injection, schedule: Q01DX009 (ip), vehicle: DMSO): 6 of 6

CCN(CC)CCCC(C)Nc1c2ccc(Cl)cc2nc2cc(Cl)ccc12 (stereo not given)
T/C (dose: 25.0 mg/kg/injection, schedule: Q01DX009 (ip), vehicle: Klucel (hydroxypropylcellulose) (HPC)): 135 % of control
T/C (dose: 50.0 mg/kg/injection, schedule: Q01DX009 (ip), vehicle: Klucel (hydroxypropylcellulose) (HPC)): 132 % of control
survivor count (dose: 100.0 mg/kg/injection, schedule: Q01DX009 (ip), vehicle: Klucel (hydroxypropylcellulose) (HPC)): 4 of 6

c1ccc2c(c1)ccc1c2c[n+](CCCCCCCC[n+]2cc3c4ccccc4ccc3c3ccccc32)c2ccccc12
T/C (dose: 0.78 mg/kg/injection, schedule: Q01DX009 (ip), vehicle: other): 141 % of control
survivor count (dose: 3.13 mg/kg/injection, schedule: Q01DX009 (ip), vehicle: other): 2 of 4
survivor count (dose: 50.0 mg/kg/injection, schedule: Q01DX009 (ip), vehicle: other): 3 of 4
survivor count (dose: 100.0 mg/kg/injection, schedule: Q01DX009 (ip), vehicle: other): 0 of 4

CC(C)(C)C[CH2][Hg][Cl]
T/C (dose: 12.5 mg/kg/injection, schedule: Q04DX003 (ip), vehicle: saline): 130 % of control

CCN(CC)Cc1c(C)[nH]c2c(OC)cccc2c1=O
survivor count (dose: 200.0 mg/kg/injection, schedule: Q01DX009 (ip), vehicle: water): 0 of 6

CC(C)(C)CC(Cl)Cl
survivor count (dose: 300.0 mg/kg/injection, schedule: Q01DX009 (ip), vehicle: Klucel (hydroxypropylcellulose) (HPC)): 2 of 6

CC1CCCCN1CCNc1ccc(CO)c2sc3ccccc3c(=O)c12 (stereo not given)
T/C (dose: 66.0 mg/kg/injection, schedule: Q01DX009 (ip), vehicle: saline with Tween-80): 144 % of control

N#CC(CC[N+](=O)[O-])(c1ccccc1)C(c1ccccc1)[N+](=O)[O-] (stereo not given)
survivor count (dose: 100.0 mg/kg/injection, schedule: Q01DX001 (ip), vehicle: saline with Tween-80): 6 of 6
survivor count (dose: 200.0 mg/kg/injection, schedule: Q01DX001 (ip), vehicle: saline with Tween-80): 6 of 6
survivor count (dose: 400.0 mg/kg/injection, schedule: Q01DX001 (ip), vehicle: saline with Tween-80): 6 of 6

O=C(O)CCc1c[nH]c2ccc(N(CCCl)CCCl)cc12
T/C (dose: 0.15 mg/kg/injection, schedule: Q04DX003 (ip), vehicle: saline with Tween-80): 127 % of control
T/C (dose: 0.3 mg/kg/injection, schedule: Q04DX003 (ip), vehicle: saline with Tween-80): 136 % of control
T/C (dose: 0.33 mg/kg/injection, schedule: Q04DX003 (ip), vehicle: saline with Tween-80): 141 % of control
survivor count (dose: 2.0 mg/kg/injection, schedule: Q04DX003 (ip), vehicle: saline): 6 of 6

NC(=O)c1ccc(NC(=O)/C=C/C(=O)Nc2ccc(C(N)=O)cn2)nc1
survivor count (dose: 2.8 mg/kg/injection, schedule: Q01DX009 (ip), vehicle: saline): 5 of 6
survivor count (dose: 11.25 mg/kg/injection, schedule: Q01DX009 (ip), vehicle: saline): 4 of 6
survivor count (dose: 22.5 mg/kg/injection, schedule: Q01DX009 (ip), vehicle: saline): 6 of 6
survivor count (dose: 60.0 mg/kg/injection, schedule: Q04DX003 (ip), vehicle: saline): 6 of 6

Source: PubChem BioAssay AID328 (DTP/NCI, 2004)
